Source: publication PMC3724652
These are yes or no findings as the source states them, for the method shown. Some entries that bind do so weakly or less than the wild type. One block for each substance: values may come before it.

Tests used:
[1] = target: GluN1 with a Myc tag between residues 416 and 417 (rat) (UniProt P35439); assay: AFM imaging of receptor-antibody complexes; receptors isolated through a His8 tag on Ni2+-agarose from a 1% CHAPS extract of membranes (total cellular pool), incubated with antibodies, imaged in air; angles between two bound antibodies
[2] = target: GluN1 with a hemagglutinin (HA)/His8 tag between residues 416 and 417 in the ABD (rat) (UniProt P35439); assay: as above
WT rat GluN1-1a (rat) [3] = target: WT rat GluN1-1a (rat) (UniProt P35439); assay: AFM imaging of receptor-antibody complexes; cell surface receptors (biotinylation, avidin-agarose, then antibody-agarose), incubated with antibodies, imaged in air; volumes and angles between two bound antibodies
WT rat GluN1-1a (rat) [4] = target: WT rat GluN1-1a (rat) (UniProt P35439); assay: AFM imaging of receptor-antibody complexes; FLAG/His8-tagged NMDA receptor purified on Ni2+-agarose and then anti-FLAG-agarose, integrated into liposomes (PC:PS 3:1), incubated with anti-GluN1 for 12 h at 4 °C, imaged under fluid (HBS) in a supported lipid bilayer
WT rat GluN1-1a (rat) [5] = target: WT rat GluN1-1a (rat) (UniProt P35439); assay: AFM imaging of receptor-antibody complexes; receptors isolated by immunoaffinity chromatography from the total cellular pool, incubated with subunit- or tag-specific antibodies, adsorbed to mica at 0.04 nM, imaged in air in tapping mode; volumes of decorated particles and angles between two bound antibodies

binding [1]: binds
Substance: GluN1 with a Myc tag between residues 416 and 417 (from UniProt P35439 19-938) (receptor)

Substance: GluN1 with a hemagglutinin (HA)/His8 tag between residues 416 and 417 in the ABD (from UniProt P35439 19-938) (receptor)
binding [2]: binds

binding (WT rat GluN1-1a (rat) [3]): binds | binding (WT rat GluN1-1a (rat) [4]): binds | binding (WT rat GluN1-1a (rat) [5]): binds
Substance: WT rat GluN1-1a (from UniProt P35439 19-938) (receptor)
